Some entries share one result that the patent states for a list of compounds.
System: Mycobacterium tuberculosis (ATCC35801)
Experiment: In vivo efficacy in a mice model infected with M. tuberculosis by spray (lung bacteria load)
Conditions: female Balb/c mice, 25 mg/kg by gavage once each working day for four weeks, day 35, compared with the solvent treated group

COc1ncc(-c2ccc(Cl)cc2)cc1C(c1ccccc1)C(O)(CCN(C)C)c1cccc2ccccc12 (centres unmarked) [Compound 115, 1-(5-(4-chlorophenyl)-2-methoxypyridin-3-yl)-4-(dimethylamino)-2-(naphthalen-1-yl)-1-phenylbutan-2-ol]
reduction of the amount of the bacteria in the lungs: 5.2-5.4 log

COc1ncc(-c2ccc(Br)cc2)cc1C(c1ccccc1)C(O)(CCN(C)C)c1cccc2ccccc12 (centres unmarked) [Compound 133, 1-(5-(4-bromophenyl)-2-methoxypyridin-3-yl)-4-(dimethylamino)-2-(naphthalen-1-yl)-1-phenylbutan-2-ol]
reduction of the amount of the bacteria in the lungs: 5.2-5.4 log

From patent publication US9878982B2, “Pyridine derivatives and anti-mycobacterial use thereof” (priority 2014, dated 2018)
